Patent publication US20100303785A1 (RAMOT AT TEL AVIV UNIVERSITY, published 2010)
Results are given in words; binding and its absence hold for the method and conditions named. Some binding calls cover weakened binding; strength is not graded here.

Sequences of proteins named here, by UniProt entry; tags and fusion partners are left off. A change or cut given only in a name is not applied to a line headed by its entry. A line that says so, or that is headed by a name, gives the form on record, which may keep a tag or linker.
Recombinant tau containing three tubulin binding repeats (3R) (P10636, form named): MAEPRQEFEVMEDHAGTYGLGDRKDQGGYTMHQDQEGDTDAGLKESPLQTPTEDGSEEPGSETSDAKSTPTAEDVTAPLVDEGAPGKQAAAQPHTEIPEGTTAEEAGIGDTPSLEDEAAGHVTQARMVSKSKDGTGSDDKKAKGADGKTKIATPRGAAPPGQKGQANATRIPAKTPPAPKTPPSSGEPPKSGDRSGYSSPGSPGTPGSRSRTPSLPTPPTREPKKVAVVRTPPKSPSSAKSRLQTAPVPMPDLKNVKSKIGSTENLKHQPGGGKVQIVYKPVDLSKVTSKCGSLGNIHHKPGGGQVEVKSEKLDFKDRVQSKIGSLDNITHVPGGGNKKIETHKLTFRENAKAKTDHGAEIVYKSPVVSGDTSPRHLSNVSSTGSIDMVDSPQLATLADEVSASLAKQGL

What was measured:
[1] = target: Recombinant tau containing three tubulin binding repeats (3R) (Homo sapiens) (UniProt P10636); assay: dot blot of NAP or VIP peptide with tau (FIG. 13)
[2] = target: Recombinant tau containing three tubulin binding repeats (3R) (Homo sapiens) (UniProt P10636); assay: affinity chromatography on a NAP-affinity column, tau-specific western blot
[3] = target: Recombinant tau containing three tubulin binding repeats (3R) (Homo sapiens) (UniProt P10636); assay: summary of the examples' direct binding studies
[4] = target: Recombinant tau containing three tubulin binding repeats (3R) (Homo sapiens) (UniProt P10636); assay: dot blot: NAP (10^-3M, 5 µl) on nitrocellulose, incubated with 2 µM 3R tau, detected with tau5 antibody

Measured: binding

NAPVSIPQ [NAP (NAPVSIPQ = Asn-Ala-Pro-Val-Ser-Ile-Pro-Gln)]
binds: all assays above
